Among the data in paper PMC5862942 are binding values, retold here.

The chains behind the UniProt entries cited, without tags or fusion partners. Where a name states a change or a piece, a line headed by the entry shows the natural chain unless it says otherwise.
UniProt Q8N371: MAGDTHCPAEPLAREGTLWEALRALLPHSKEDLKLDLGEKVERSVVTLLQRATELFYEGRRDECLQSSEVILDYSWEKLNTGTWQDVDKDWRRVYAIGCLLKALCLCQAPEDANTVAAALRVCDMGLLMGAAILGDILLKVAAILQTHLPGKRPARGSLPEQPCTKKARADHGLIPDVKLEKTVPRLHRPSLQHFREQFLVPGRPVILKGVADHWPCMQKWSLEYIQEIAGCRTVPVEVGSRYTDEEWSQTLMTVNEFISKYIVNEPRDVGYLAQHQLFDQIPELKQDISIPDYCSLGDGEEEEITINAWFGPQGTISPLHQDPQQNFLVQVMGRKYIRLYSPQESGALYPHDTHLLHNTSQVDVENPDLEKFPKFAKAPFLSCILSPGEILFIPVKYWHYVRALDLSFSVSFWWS

Results are given in words; binding and its absence hold for the method and conditions named. A result given as binding can be weak or reduced; the word gives no strength.

Experiment [1] concerns the target N-terminally truncated JMJD5 (Jumonji-C domain-containing protein 5), wild type (human) (UniProt Q8N371). Nature of the experiment: crystal structure; co-crystallisation without cross-link: 0.8 mM His6-JMJD5, 1.5 mM MnCl2, 2.5 mM NOG, 10 mM substrate peptide; vapour diffusion at 22 °C, 0.1 M Bis-Tris pH 5.8-6.5, PEG 3350; both purified.
The target in experiment [2] is JMJD5(W414C), N-terminally truncated (human) (UniProt Q8N371). Nature of the experiment: crystal structure; site-specific disulphide enzyme-substrate cross-linked complexes (JMJD5 Cys variant with Cys-containing peptide), with Mn and NOG or 2OG; vapour diffusion at 22 °C, 0.1 M Bis-Tris pH 5.8-6.5, PEG 3350; both purified.
For experiment [3], the target named is JMJD5(N308C), N-terminally truncated (human) (UniProt Q8N371). The experiment is described as above.

Take VPRRLGPKRASRIRKL (C-terminal amide) [40S ribosomal protein S6 (RPS6) peptide, residues 129-144]: the binding result in experiment [1] is given as “binds”.

For the molecule CARAY (C-terminal amide) [Regulator of chromosome condensation domain-containing protein 1 (RCCD1) peptide, residues 139-143], the binding entry in experiment [2] and in experiment [3] was “binds” each time.
